Results published in article PMC3807682.
These are yes or no findings as the source states them, for the method shown. Binding seen in cells or lysates may run through a third protein. For some of these results: A result given as binding can be weak or reduced; the word gives no strength.

Amino acid sequences for entries named in this document (tags omitted). A change or cut given only in a name is not applied to a line headed by its entry.
UniProt P40791: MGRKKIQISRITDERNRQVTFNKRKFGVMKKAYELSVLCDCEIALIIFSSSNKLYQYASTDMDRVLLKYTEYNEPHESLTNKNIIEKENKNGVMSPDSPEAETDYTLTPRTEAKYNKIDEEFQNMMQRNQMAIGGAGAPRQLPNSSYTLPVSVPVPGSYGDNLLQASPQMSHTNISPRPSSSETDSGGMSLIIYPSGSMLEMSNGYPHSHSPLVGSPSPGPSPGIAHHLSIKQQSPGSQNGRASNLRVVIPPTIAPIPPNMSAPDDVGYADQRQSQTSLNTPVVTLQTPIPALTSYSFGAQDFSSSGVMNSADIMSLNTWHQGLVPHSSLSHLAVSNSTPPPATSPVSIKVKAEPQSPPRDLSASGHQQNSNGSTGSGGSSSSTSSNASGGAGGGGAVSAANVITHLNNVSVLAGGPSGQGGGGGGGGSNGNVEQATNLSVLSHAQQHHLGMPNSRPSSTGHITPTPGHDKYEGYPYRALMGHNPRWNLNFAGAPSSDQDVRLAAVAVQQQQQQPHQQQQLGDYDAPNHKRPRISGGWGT

How the values were obtained:
[1] = target: HA-tagged nonphosphorylatable MEF2 (T20A), inducibly expressed in the fly fat body (Drosophila) (UniProt P40791); test: co-IP; fat-body-expressed MEF2*.HA precipitated with anti-HA (16B12) from whole-fly lysates, blot for endogenous TBP; uninfected flies
[2] = target: HA-tagged phosphomimetic MEF2 (T20E), inducibly expressed in the fly fat body (Drosophila) (UniProt P40791); test: as above
[3] = target: HA-tagged nonphosphorylatable MEF2 (T20A), inducibly expressed in the fly fat body (Drosophila) (UniProt P40791); test: co-IP; fat-body-expressed MEF2*.HA precipitated with anti-HA (16B12) from whole-fly lysates, blot for endogenous TBP; flies 3 hr after mixed E. coli and M. luteus infection
[4] = target: HA-tagged phosphomimetic MEF2 (T20E), inducibly expressed in the fly fat body (Drosophila) (UniProt P40791); test: as above

binding [1]: binds
binding [2]: no binding
binding [3]: binds
binding [4]: no binding
B1: TATA binding protein (TBP), endogenous Drosophila (protein, UniProt P20227 1-353)
chain: MDQMLSPNFSIPSIGTPLHQMEADQQIVANPVYHPPAVSQPDSLMPAPGSSSVQHQQQQQQSDASGGSGLFGHEPSLPLAHKQMQSYQPSASYQQQQQQQQLQSQAPGGGGSTPQSMMQPQTPQSMMAHMMPMSERSVGGSGAGGGGDALSNIHQTMGPSTPMTPATPGSADPGIVPQLQNIVSTVNLCCKLDLKKIALHARNAEYNPKRFAAVIMRIREPRTTALIFSSGKMVCTGAKSEDDSRLAARKYARIIQKLGFPAKFLDFKIQNMVGSCDVKFPIRLEGLVLTHCNFSSYEPELFPGLIYRMVRPRIVLLIFVSGKVVLTGAKVRQEIYDAFDKIFPILKKFKKQS
